Data on two variants can be found in paper PMC5150220.

The labels stand for the following.
B1: Ssb1 (wild type, recombinant) [S. cerevisiae] / IAANS-labelled peptide σ32-Q132-Q144-C [modified: IAANS (2-(4'-(iodoacetamido)anilino)naphthalene-6-sulfonic acid) label; IAANS (2-(4'-(iodoacetamido)anilino)naphtha … (parent)
chain 1: MAEGVFQGAIGIDLGTTYSCVATYESSVEIIANEQGNRVTPSFVAFTPEERLIGDAAKNQAALNPRNTVFDAKRLIGRRFDDESVQKDMKTWPFKVIDVDGNPVIEVQYLEETKTFSPQEISAMVLTKMKEIAEAKIGKKVEKAVITVPAYFNDAQRQATKDAGAISGLNVLRIINEPTAAAIAYGLGAGKSEKERHVLIFDLGGGTFDVSLLHIAGGVYTVKSTSGNTHLGGQDFDTNLLEHFKAEFKKKTGLDISDDARALRRLRTAAERAKRTLSSVTQTTVEVDSLFDGEDFESSLTRARFEDLNAALFKSTLEPVEQVLKDAKISKSQIDEVVLVGGSTRIPKVQKLLSDFFDGKQLEKSINPDEAVAYGAAVQGAILTGQSTSDETKDLLLLDVAPLSLGVGMQGDMFGIVVPRNTTVPTIKRRTFTTCADNQTTVQFPVYQGERVNCKENTLLGEFDLKNIPMMPAGEPVLEAIFEVDANGILKVTAVEKSTGKSSNITISNAVGRLSSEEIEKMVNQAEEFKAADEAFAKKHEARQRLESYVASIEQTVTDPVLSSKLKRGSKSKIEAALSDALAALQIEDPSADELRKAEVGLKRVVTKAMSSR
chain 2: QRKLFFNLRKTKQC

Assay [1] covers variants of B1. Briefly: fluorescence anisotropy (fluorescence polarization). Conditions: with IAANS-labelled peptide σ32-Q132-Q144-C [modified: IAANS (2-(4'-(iodoacetamido)anilino)naphthalene-6-sulfonic acid) label, parent: 140, read off a plot.
The variants in assay [2] derive from B1. Description: peptide release kinetics (IAANS-labelled peptide fluorescence). Conditions: with IAANS-labelled peptide σ32-Q132-Q144-C [modified: IAANS (2-(4'-(iodoacetamido)anilino)naphthalene-6-sulfonic acid) label, parent: 0.003, read off a plot.

One may read the koff as the rate constant with which the complex falls apart. On to chain 1 K428A R429A R430A, for which the response in assay [1] came to 120 mP. Moreover, the koff in assay [2] was found to be 0.0017 s⁻¹.
With chain 1 K603A R604A K608A R613A, the response in assay [1] stood at 120 mP. Further, the koff in assay [2] stood at 0.0023 s⁻¹.
